# Assay results as given in the supplement of paper PMC6411743.
# By UniProt entry, the sequences of proteins in these tests, tags left out. Where a name states a change or a piece, a line headed by the entry shows the natural chain unless it says otherwise.
# UniProt Q969S8: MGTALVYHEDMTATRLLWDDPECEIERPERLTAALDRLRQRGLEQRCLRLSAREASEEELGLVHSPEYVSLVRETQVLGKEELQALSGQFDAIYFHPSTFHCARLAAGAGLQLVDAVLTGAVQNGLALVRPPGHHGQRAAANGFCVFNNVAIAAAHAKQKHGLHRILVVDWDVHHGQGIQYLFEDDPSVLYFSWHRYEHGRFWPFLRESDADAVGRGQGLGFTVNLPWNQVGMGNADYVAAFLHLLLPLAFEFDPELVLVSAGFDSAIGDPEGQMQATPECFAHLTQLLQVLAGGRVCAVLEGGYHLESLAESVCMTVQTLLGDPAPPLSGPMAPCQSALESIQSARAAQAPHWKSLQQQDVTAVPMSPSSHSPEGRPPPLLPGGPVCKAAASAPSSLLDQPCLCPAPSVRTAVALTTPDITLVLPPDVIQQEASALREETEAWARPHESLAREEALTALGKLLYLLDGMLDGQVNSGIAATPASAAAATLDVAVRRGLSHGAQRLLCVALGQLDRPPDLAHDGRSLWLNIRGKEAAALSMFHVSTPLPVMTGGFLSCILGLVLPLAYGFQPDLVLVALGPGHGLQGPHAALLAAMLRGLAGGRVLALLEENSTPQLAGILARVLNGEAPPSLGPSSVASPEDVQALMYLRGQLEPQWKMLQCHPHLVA
# UniProt Q96EI5: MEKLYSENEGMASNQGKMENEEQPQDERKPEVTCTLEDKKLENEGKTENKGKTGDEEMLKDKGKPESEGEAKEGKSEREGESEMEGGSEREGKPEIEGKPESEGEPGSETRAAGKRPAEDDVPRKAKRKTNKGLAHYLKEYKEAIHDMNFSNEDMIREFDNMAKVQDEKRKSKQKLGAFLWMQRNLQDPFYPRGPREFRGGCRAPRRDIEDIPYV
# UniProt Q9H3R5: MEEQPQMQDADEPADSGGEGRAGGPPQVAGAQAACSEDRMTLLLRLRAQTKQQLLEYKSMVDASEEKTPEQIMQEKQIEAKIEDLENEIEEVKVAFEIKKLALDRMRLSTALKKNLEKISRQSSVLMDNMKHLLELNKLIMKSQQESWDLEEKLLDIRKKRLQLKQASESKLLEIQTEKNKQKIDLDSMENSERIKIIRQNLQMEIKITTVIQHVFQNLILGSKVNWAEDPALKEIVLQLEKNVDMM
# UniProt O43676, whole entry: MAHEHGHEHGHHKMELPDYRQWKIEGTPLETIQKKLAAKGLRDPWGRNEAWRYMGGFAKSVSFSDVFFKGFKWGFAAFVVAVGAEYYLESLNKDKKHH
# UniProt Q8WTS6: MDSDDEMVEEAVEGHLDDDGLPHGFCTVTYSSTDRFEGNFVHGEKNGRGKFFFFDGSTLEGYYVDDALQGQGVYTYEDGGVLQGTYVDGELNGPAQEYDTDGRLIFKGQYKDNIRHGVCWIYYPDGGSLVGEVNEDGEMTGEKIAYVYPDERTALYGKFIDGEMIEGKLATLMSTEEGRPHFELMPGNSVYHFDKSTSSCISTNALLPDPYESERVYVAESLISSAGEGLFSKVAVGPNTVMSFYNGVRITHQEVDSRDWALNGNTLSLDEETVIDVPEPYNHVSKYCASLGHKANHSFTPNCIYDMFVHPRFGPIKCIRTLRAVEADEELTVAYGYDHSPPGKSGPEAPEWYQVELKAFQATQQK
# UniProt Q8N3C7: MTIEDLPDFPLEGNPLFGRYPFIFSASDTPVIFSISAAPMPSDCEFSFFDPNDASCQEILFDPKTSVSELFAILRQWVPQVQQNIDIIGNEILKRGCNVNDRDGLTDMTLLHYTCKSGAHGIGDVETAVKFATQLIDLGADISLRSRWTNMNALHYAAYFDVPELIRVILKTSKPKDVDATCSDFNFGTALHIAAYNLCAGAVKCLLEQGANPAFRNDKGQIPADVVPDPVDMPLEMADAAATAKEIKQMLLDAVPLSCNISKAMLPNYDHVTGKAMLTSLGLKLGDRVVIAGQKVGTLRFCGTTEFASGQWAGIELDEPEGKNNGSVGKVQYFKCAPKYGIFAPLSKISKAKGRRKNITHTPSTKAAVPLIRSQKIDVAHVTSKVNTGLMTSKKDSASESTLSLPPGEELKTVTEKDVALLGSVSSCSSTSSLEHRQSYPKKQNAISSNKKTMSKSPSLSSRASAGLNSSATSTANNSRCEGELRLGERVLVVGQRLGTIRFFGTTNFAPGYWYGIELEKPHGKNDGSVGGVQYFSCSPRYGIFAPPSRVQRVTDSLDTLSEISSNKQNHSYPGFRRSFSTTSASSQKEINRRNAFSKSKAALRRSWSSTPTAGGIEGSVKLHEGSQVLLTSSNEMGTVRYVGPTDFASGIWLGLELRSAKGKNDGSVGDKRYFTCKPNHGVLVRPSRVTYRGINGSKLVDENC
# UniProt Q9NZK5: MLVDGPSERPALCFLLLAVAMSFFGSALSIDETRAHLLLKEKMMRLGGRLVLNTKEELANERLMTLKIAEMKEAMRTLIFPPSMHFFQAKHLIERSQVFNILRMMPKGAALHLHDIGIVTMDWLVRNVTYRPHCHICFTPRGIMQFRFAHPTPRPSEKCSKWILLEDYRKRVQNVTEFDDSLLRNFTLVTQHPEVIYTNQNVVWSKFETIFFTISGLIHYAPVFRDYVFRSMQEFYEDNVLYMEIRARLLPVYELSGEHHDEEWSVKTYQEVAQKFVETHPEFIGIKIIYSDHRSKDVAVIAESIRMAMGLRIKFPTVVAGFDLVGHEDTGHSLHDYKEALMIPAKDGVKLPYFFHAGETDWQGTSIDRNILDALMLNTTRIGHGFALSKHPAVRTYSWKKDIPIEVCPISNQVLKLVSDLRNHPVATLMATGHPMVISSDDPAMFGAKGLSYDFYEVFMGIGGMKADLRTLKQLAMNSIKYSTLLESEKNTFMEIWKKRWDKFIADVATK
# UniProt Q16718, whole entry: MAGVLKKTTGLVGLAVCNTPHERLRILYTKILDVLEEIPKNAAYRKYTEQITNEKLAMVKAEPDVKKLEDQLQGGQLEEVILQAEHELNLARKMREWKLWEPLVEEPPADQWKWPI
# UniProt O94925: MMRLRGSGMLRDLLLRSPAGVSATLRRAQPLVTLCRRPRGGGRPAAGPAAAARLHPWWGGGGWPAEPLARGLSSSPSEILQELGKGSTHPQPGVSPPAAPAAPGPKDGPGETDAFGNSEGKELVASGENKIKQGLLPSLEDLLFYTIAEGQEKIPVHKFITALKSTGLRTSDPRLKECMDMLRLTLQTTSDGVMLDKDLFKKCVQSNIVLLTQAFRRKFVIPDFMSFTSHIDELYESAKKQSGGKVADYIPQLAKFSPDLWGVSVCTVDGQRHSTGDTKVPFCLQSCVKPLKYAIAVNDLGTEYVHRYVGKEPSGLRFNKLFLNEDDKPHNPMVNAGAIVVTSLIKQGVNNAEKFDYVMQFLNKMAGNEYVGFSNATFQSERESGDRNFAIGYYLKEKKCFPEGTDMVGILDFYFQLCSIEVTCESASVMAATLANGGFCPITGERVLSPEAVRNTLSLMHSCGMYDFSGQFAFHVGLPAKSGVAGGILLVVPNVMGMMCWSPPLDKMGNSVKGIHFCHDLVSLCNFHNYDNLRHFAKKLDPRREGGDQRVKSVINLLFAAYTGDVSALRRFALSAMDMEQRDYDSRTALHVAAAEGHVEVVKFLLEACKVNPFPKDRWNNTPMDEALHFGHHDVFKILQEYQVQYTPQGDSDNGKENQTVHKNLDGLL
# UniProt Q0PNE2: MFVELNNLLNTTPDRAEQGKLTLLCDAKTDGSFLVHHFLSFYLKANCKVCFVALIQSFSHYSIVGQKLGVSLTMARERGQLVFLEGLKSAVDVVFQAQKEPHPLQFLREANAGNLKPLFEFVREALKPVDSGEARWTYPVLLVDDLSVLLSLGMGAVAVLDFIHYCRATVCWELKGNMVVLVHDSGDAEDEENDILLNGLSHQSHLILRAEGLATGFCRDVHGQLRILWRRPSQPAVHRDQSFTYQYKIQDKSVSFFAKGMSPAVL
# UniProt Q5T8D3: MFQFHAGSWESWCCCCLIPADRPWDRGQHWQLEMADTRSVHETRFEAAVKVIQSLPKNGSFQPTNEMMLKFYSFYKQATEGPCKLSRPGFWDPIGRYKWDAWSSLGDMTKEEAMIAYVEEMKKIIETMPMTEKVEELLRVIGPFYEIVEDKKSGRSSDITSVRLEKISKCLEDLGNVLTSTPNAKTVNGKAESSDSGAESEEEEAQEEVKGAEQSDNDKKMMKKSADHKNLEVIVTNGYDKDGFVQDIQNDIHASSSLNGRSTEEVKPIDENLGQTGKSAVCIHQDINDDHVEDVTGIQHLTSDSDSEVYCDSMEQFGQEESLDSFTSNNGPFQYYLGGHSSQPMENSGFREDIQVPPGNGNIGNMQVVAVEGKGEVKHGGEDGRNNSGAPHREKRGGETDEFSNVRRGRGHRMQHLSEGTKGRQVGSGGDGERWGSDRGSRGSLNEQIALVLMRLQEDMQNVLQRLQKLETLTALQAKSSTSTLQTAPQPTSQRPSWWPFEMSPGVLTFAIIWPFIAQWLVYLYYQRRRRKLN
# UniProt P29323: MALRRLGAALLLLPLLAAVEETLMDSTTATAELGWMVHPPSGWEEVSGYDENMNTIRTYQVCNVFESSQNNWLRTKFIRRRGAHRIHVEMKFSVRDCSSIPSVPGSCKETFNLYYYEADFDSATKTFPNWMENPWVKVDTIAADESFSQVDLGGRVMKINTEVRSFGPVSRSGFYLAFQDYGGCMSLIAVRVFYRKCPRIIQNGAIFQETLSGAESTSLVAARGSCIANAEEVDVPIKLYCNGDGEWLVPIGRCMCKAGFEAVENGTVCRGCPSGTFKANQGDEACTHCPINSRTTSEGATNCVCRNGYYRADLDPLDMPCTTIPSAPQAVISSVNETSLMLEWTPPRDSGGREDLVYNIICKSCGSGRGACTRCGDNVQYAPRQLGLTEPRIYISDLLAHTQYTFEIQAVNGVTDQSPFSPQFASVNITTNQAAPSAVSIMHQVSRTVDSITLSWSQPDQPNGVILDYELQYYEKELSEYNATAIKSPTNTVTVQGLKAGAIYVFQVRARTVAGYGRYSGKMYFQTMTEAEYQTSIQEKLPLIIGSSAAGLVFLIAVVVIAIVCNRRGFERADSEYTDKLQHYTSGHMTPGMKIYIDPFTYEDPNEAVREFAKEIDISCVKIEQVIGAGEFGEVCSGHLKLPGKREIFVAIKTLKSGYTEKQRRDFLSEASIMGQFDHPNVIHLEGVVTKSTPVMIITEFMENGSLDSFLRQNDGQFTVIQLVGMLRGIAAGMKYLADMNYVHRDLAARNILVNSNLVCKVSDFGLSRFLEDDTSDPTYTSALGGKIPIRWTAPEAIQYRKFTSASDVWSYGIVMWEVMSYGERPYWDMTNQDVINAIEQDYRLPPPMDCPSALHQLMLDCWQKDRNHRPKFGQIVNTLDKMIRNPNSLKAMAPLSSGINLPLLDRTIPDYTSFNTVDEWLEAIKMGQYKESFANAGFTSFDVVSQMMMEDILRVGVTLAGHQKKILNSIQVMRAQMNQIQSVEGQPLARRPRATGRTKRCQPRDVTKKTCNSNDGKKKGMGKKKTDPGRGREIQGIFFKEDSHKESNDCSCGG
# UniProt Q86XS8: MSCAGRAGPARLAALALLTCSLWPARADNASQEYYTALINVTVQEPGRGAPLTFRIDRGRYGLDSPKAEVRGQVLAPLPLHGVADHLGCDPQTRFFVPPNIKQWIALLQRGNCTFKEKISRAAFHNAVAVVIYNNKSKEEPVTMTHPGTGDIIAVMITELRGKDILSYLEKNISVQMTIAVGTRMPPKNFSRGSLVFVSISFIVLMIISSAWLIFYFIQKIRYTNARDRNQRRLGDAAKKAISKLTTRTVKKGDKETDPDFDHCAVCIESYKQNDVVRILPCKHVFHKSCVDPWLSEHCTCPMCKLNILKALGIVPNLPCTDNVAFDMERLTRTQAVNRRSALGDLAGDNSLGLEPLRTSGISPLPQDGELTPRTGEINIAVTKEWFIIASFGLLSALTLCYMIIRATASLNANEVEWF
# UniProt A2RUC4: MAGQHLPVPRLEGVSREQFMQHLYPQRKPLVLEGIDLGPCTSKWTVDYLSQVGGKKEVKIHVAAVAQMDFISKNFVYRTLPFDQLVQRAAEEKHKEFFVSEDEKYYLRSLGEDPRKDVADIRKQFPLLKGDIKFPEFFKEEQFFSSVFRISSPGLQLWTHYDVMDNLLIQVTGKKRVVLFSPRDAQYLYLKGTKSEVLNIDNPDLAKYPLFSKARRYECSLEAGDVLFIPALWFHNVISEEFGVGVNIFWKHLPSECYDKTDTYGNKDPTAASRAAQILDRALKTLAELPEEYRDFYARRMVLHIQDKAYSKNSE
# UniProt P24864, whole entry: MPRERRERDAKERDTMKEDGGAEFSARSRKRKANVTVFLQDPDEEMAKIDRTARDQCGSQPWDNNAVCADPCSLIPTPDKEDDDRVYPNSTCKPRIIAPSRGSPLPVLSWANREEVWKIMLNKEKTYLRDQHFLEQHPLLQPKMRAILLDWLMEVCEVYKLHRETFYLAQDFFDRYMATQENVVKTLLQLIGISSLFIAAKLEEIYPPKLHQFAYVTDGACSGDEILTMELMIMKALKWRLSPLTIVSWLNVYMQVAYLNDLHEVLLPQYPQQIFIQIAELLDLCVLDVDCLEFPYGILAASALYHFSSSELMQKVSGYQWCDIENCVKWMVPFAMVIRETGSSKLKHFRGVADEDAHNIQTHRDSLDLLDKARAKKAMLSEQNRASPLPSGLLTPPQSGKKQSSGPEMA
# ± gives the standard deviation of the averaged measurements. The entries are a selection whose mix differs from that of the whole data set. Most entries show no effect beyond the scatter of the controls.
# Compound: Nc1ncnc2c1ncn2[C@@H]1O[C@H](COP(=O)(O)OP(=O)(O)NP(=O)(O)O)[C@@H](O)[C@H]1O [adenylyl imidodiphosphate]
# Assay: NP40-soluble protein abundance relative to vehicle (solubility fold change) (ratio); higher = more soluble protein in presence of AMP-PNP
# Method in brief: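 Jurkat crude lysate prepared with a Dounce homogeniser was treated at eight concentrations spanning 0.1 to 10 mM, 10 min at room temperature then 3 min at 37 °C. Solubilisation with 0.8% NP40 and benzonase and ultracentrifugation preceded TMT labelling of the supernatant for LC-MS/MS. Fold change against the detergent-processed vehicle was determined per replicate from vsn-normalised intensities, across three independent experiments.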
target,measurement,setting,value
A9IYQ1 and related entries (UniProt Q9NTI5),NP40-soluble protein abundance,concentration: 0.1mM,1.001 ± 0.0091
same,NP40-soluble protein abundance,concentration: 0.5mM,1 ± 0.012
C9J8B8 and related entries (UniProt Q969S8),NP40-soluble protein abundance,concentration: 0.1mM,0.964 ± 0.001
same,NP40-soluble protein abundance,concentration: 0.5mM,0.9782 ± 0.0042
A6PVN5 and related entries (UniProt Q15257),NP40-soluble protein abundance,concentration: 0.1mM,1.03 ± 0.048
same,NP40-soluble protein abundance,concentration: 0.5mM,1.03 ± 0.05
C4B7M2 and related entries (UniProt Q96JI7),NP40-soluble protein abundance,concentration: 0.1mM,0.973 ± 0.038
same,NP40-soluble protein abundance,concentration: 0.5mM,0.986 ± 0.052
C9J2P0 and related entries (UniProt P51965),NP40-soluble protein abundance,concentration: 0.1mM,0.972 ± 0.019
same,NP40-soluble protein abundance,concentration: 0.5mM,1 ± 0.034
ZNF316 (UniProt A6NFI3),NP40-soluble protein abundance,concentration: 0.1mM,0.987 ± 0.03
same,NP40-soluble protein abundance,concentration: 0.5mM,0.994 ± 0.025
D6R9C7 and related entries (UniProt Q6NW29),NP40-soluble protein abundance,concentration: 0.1mM,0.996 ± 0.02
same,NP40-soluble protein abundance,concentration: 0.5mM,0.985 ± 0.018
A2RQR6 and related entries (UniProt Q96EI5),NP40-soluble protein abundance,concentration: 0.1mM,0.969 ± 0.019
same,NP40-soluble protein abundance,concentration: 0.5mM,0.997 ± 0.025
B3KVZ3 and related entries (UniProt Q9H3R5),NP40-soluble protein abundance,concentration: 0.1mM,1.03 ± 0.024
same,NP40-soluble protein abundance,concentration: 0.5mM,1.04 ± 0.023
B1AP13 and related entries (UniProt P08174),NP40-soluble protein abundance,concentration: 0.1mM,1.02 ± 0.039
same,NP40-soluble protein abundance,concentration: 0.5mM,1.039 ± 0.0082
C9JZB0 and related entries (UniProt Q9BT40),NP40-soluble protein abundance,concentration: 0.1mM,1 ± 0.04
same,NP40-soluble protein abundance,concentration: 0.5mM,1.01 ± 0.076
C9JKQ2 and related entries (UniProt O43676),NP40-soluble protein abundance,concentration: 0.1mM,1 ± 0.08
same,NP40-soluble protein abundance,concentration: 0.5mM,1.05 ± 0.066
B3KQH5 and related entries (UniProt Q9UL03),NP40-soluble protein abundance,concentration: 0.1mM,1.02 ± 0.019
same,NP40-soluble protein abundance,concentration: 0.5mM,0.981 ± 0.027
C9J494 and related entries (UniProt Q9H000),NP40-soluble protein abundance,concentration: 0.1mM,0.9946 ± 0.0078
same,NP40-soluble protein abundance,concentration: 0.5mM,1 ± 0.022
B4DVL2 and related entries (UniProt Q02083),NP40-soluble protein abundance,concentration: 0.1mM,0.996 ± 0.019
same,NP40-soluble protein abundance,concentration: 0.5mM,1.02 ± 0.0027
B5MCS2 and related entries (UniProt Q8WTS6),NP40-soluble protein abundance,concentration: 0.1mM,0.949 ± 0.07
same,NP40-soluble protein abundance,concentration: 0.5mM,0.898 ± 0.052
C9JKL2 and related entries (UniProt O95772),NP40-soluble protein abundance,concentration: 0.1mM,1 ± 0.034
same,NP40-soluble protein abundance,concentration: 0.5mM,1.01 ± 0.048
D6R9Q5 and related entries (UniProt Q9UM13),NP40-soluble protein abundance,concentration: 0.1mM,1.04 ± 0.021
same,NP40-soluble protein abundance,concentration: 0.5mM,0.999 ± 0.031
B5MCH3 and related entries (UniProt Q8N3C7),NP40-soluble protein abundance,concentration: 0.1mM,0.984 ± 0.024
same,NP40-soluble protein abundance,concentration: 0.5mM,0.992 ± 0.014
B4E3Q4 and related entries (UniProt Q9NZK5),NP40-soluble protein abundance,concentration: 0.1mM,1.04 ± 0.036
same,NP40-soluble protein abundance,concentration: 0.5mM,0.99 ± 0.041
C9JG32 and related entries (UniProt P43897),NP40-soluble protein abundance,concentration: 0.1mM,0.986 ± 0.021
same,NP40-soluble protein abundance,concentration: 0.5mM,1.01 ± 0.044
C9JFE4 and related entries (UniProt Q13098),NP40-soluble protein abundance,concentration: 0.1mM,0.992 ± 0.04
same,NP40-soluble protein abundance,concentration: 0.5mM,1.04 ± 0.057
B1AL69 and related entries (UniProt Q7L3B6),NP40-soluble protein abundance,concentration: 0.1mM,1.01 ± 0.011
same,NP40-soluble protein abundance,concentration: 0.5mM,0.996 ± 0.032
C9IZN5 and related entries (UniProt Q16718),NP40-soluble protein abundance,concentration: 0.1mM,1.08 ± 0.029
same,NP40-soluble protein abundance,concentration: 0.5mM,0.97 ± 0.029
A6NG10 and related entries (UniProt Q969T9),NP40-soluble protein abundance,concentration: 0.1mM,1 ± 0.02
same,NP40-soluble protein abundance,concentration: 0.5mM,0.998 ± 0.038
C9JQV3 and related entries (UniProt Q8N1F8),NP40-soluble protein abundance,concentration: 0.1mM,1.01 ± 0.032
same,NP40-soluble protein abundance,concentration: 0.5mM,0.996 ± 0.038
B4DTS2 and related entries (UniProt Q9BZL6),NP40-soluble protein abundance,concentration: 0.1mM,1.06 ± 0.013
same,NP40-soluble protein abundance,concentration: 0.5mM,1.02 ± 0.035
B8ZZA8 and related entries (UniProt O94925),NP40-soluble protein abundance,concentration: 0.1mM,0.98 ± 0.019
same,NP40-soluble protein abundance,concentration: 0.5mM,0.9869 ± 0.0083
D6RIF6 and related entries (UniProt Q9P270),NP40-soluble protein abundance,concentration: 0.1mM,0.996 ± 0.03
same,NP40-soluble protein abundance,concentration: 0.5mM,0.99 ± 0.011
C9IY40 and related entries (UniProt Q5T653),NP40-soluble protein abundance,concentration: 0.1mM,1.03 ± 0.02
same,NP40-soluble protein abundance,concentration: 0.5mM,0.9877 ± 0.0046
C9IYN7 and related entries (UniProt Q0PNE2),NP40-soluble protein abundance,concentration: 0.1mM,1.02 ± 0.026
same,NP40-soluble protein abundance,concentration: 0.5mM,0.987 ± 0.12
C9J5X1 and related entries (UniProt P08069),NP40-soluble protein abundance,concentration: 0.1mM,0.988 ± 0.023
same,NP40-soluble protein abundance,concentration: 0.5mM,1 ± 0.011
B4DWF2 and related entries (UniProt Q9UKS7),NP40-soluble protein abundance,concentration: 0.1mM,1.03 ± 0.037
same,NP40-soluble protein abundance,concentration: 0.5mM,1.03 ± 0.025
B7Z2R7 and related entries (UniProt Q5T8D3),NP40-soluble protein abundance,concentration: 0.1mM,0.971 ± 0.01
same,NP40-soluble protein abundance,concentration: 0.5mM,0.984 ± 0.011
B4DI03 and related entries (UniProt Q9BY50),NP40-soluble protein abundance,concentration: 0.1mM,0.973 ± 0.045
same,NP40-soluble protein abundance,concentration: 0.5mM,0.944 ± 0.026
B1AKC9 and related entries (UniProt P29323),NP40-soluble protein abundance,concentration: 0.1mM,0.998 ± 0.05
same,NP40-soluble protein abundance,concentration: 0.5mM,0.993 ± 0.018
B4DXZ6 and related entries (UniProt P51114),NP40-soluble protein abundance,concentration: 0.1mM,1.03 ± 0.031
same,NP40-soluble protein abundance,concentration: 0.5mM,1.04 ± 0.046
A8MT40 and related entries (UniProt Q8NCN5),NP40-soluble protein abundance,concentration: 0.1mM,1.02 ± 0.018
same,NP40-soluble protein abundance,concentration: 0.5mM,0.94 ± 0.097
E5RI87 and related entries (UniProt Q86XS8),NP40-soluble protein abundance,concentration: 0.1mM,1.03 ± 0.068
same,NP40-soluble protein abundance,concentration: 0.5mM,1.03 ± 0.033
D6RD47 and related entries (UniProt P62266),NP40-soluble protein abundance,concentration: 0.1mM,1.06 ± 0.018
same,NP40-soluble protein abundance,concentration: 0.5mM,1 ± 0.06
C9JM79 and related entries (UniProt Q13427),NP40-soluble protein abundance,concentration: 0.1mM,1.02 ± 0.022
same,NP40-soluble protein abundance,concentration: 0.5mM,1.02 ± 0.026
C9J470 and related entries (UniProt Q15003),NP40-soluble protein abundance,concentration: 0.1mM,0.993 ± 0.013
same,NP40-soluble protein abundance,concentration: 0.5mM,1.01 ± 0.052
UniProt A2RUC4,NP40-soluble protein abundance,concentration: 0.1mM,1 ± 0.026
same,NP40-soluble protein abundance,concentration: 0.5mM,0.966 ± 0.022
C9J2U0 and related entries (UniProt P24864),NP40-soluble protein abundance,concentration: 0.1mM,0.999 ± 0.0098
same,NP40-soluble protein abundance,concentration: 0.5mM,0.966 ± 0.064
